Structures were worked out from names or drawings and are uncertain.
Key:
[1] = biological target: human CB2 (hCB2) receptor (Homo sapiens, UniProt P34972); experiment: Inhibition of forskolin-activated cAMP production upon activation of hCB2 (HTRF), CHO-K1 cells; format: cell-based
[2] = biological target: human CB1 (hCB1) receptor (Homo sapiens, UniProt P21554); experiment: Inhibition of forskolin-activated cAMP production upon activation of hCB1 (HTRF), CHO-K1 cells; format: cell-based; details: pEC50=-log(EC50)
Method: Functional activity of the test compounds was assessed by measuring their potency to inhibit forskolin-activated cAMP production upon activation of the human CB1 (hCB1) or human CB2 (hCB2) receptor through homogenous time resolved fluorescence (HTRF) assays.
CHO-K1 cells stably transfected with either hCB1 or hCB2 were grown up to 80-90% confluence in T175 Falcon flasks in DMEM/NUT MIX F-12 culture medium complemented with 2% Solution A (5.10^6 IU/l penicillin G, 5 g/l streptomycin sulphate, 5.5 g/l pyruvate, 14.6 g/l L-glutamine, 1M NaOH) and 10% foetal calf serum. Before the experiments, medium was removed, cells were washed with PBS/EDTA (140 mM NaCl, 1 mM Naz-EDTA, 8 mM Na2HPO4.2H2O, 8.5 mM KH2PO4, 2.7 mM KCl, 21 mM glucose), resuspended in stimulation buffer (HBSS 1x, IBMX 1 mM, Hepes 5 mM, MgCl2 10 mM, BSA 0.1%, pH 7.4). Cells were diluted to a concentration of 8.10^5 cell/ml for hCB1 experiments and 10^6 cells/ml for hCB2 experiments. Assays were performed using the cAMP Dynamic HTRF kit (CIS bio international, France) according to the recommendations of the manufacturer. […]
After equilibration of the reaction mixtures for 1 to 24 hours in dark at room temperature, fluorescence was measured at 665 nm and 620 nm using a Discovery microplate fluorescence counter (Perkin Elmer), and the signal ratio of 665 nm/620 nm was calculated. […]

Protein sequences, listed by entry. Tags and fused reporters are not part of them.
UniProt P34972, whole entry: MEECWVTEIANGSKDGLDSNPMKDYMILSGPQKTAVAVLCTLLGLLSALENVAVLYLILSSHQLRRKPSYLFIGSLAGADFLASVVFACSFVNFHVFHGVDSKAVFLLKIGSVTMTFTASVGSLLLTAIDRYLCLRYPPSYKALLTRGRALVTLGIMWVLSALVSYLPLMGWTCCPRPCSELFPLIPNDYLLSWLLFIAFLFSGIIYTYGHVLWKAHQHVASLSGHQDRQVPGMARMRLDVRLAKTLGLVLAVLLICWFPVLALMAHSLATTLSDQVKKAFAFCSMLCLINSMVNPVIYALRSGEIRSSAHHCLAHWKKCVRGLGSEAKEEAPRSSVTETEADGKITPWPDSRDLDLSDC
UniProt P21554, whole entry: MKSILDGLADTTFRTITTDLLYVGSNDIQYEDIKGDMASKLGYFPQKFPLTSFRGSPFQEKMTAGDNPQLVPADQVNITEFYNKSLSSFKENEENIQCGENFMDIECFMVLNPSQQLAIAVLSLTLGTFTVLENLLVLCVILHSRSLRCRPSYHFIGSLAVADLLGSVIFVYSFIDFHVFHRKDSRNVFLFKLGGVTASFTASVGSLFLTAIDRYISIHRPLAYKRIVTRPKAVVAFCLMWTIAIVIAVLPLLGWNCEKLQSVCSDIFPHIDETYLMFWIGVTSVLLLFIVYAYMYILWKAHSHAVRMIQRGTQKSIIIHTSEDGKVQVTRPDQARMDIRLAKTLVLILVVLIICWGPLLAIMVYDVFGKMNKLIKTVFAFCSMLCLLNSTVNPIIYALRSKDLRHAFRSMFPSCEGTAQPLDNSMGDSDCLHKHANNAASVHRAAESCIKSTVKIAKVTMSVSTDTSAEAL

## CC1=C([S+]([O-])c2ccc3c(c2)nc(C(C)(C)C)n3CC2CCOCC2)C=N[NH+]1[O-] (stereo not drawn)
[1]; Table C-1, selectivity hCB2 over hCB1
  ratio CB2 agonism over CB1 agonism: 437
[1]; hCB2-CHO-K1 cells, forskolin-activated cAMP, pEC50=-log(EC50)
  CB2 pEC50: 8.75
[2]
  CB1 pEC50: 6.11

Reference: US9284303B2, “Benzimidazole cannabinoid agonists bearing a substituted heterocyclic group” (priority 2006, dated 2016)
